Measurements reported in PubChem BioAssay AID743454 (Peter MacCallum Cancer Centre, 2014)

Aim: 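Knock-downs lowering viability or raising caspase 3/7 activity in vorinostat-treated resistant cells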 (primary screen)
Cell system: human HCT116-VR colon cancer cells, selected for vorinostat resistance
Reagent: siRNA pool against human genes, 40 nM siRNA pool
Timing: vorinostat for 24 h, read-out about 72 h after transfection
Conditions: vorinostat at 2.5 µM final
Measured: 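Cell viability by CellTiter-Fluor and caspase 3/7 activity by luminescence, each scaled to mock wells per plate, duplicates averaged, then robust z-scored over all plates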
Reading the numbers: viability robust z-score: higher = more viable cells than screen typical; caspase robust z-score: higher = more caspase 3/7 activity than screen typical
Call rule: 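a knock-down is a hit when classed RV1 or RV2 for lowered viability, or CA1 or CA2 for caspase activation; those lethal without drug were dropped; hits were retested singly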
Here is a random part of about 18,000 reagents tested. In the full data, 450 (2.5%) got an active call. 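Single biological run; no consistent viability z cut-off exists, so the class columns, not z-scores, define the calls.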

gene	viability hit class	caspase hit class	viability robust z-score	caspase robust z-score	Outcome
TACR2 (tachykinin receptor 2)	no change	no change	0.78	-0.3	inactive
PUS1 (pseudouridine synthase 1)	no change	no change	1.44	-1.08	inactive
DHRS4 (dehydrogenase/reductase 4)	no change	no change	0.15	2.96	inactive
EDNRB (endothelin receptor type B)	no change	no change	-0.88	2.64	inactive
COPA (coat protein complex I subunit alpha)	no change	no change	-3.42	0.18	inactive
ABCG1 (ATP binding cassette subfamily G member 1)	no change	no change	2.18	3.85	inactive
ZNF648 (zinc finger protein 648)	no change	no change	-0.45	0.68	inactive
TCHHL1 (trichohyalin like 1)	no change	no change	-0.15	1.27	inactive
CDKN2A (cyclin dependent kinase inhibitor 2A)	no change	no change	-0.18	-1.16	inactive
RNF185 (ring finger protein 185)	no change	no change	-0.45	-0.74	inactive
MMP23B (matrix metallopeptidase 23B)	no change	no change	0.77	-0.58	inactive
LHB (luteinizing hormone subunit beta)	no change	no change	-0.6	-0.88	inactive
HSPA1A (heat shock protein family A (Hsp70) member 1A)	no change	no change	0.48	2.24	inactive
NEK6 (NIMA related kinase 6)	no change	no change	0.5	-1.06	inactive
TECTA (tectorin alpha)	no change	no change	0.84	-1.08	inactive
BET1L (Bet1 golgi vesicular membrane trafficking protein like)	no change	no change	-0.8	2.17	inactive
PRORP (protein only RNase P catalytic subunit)	no change	no change	0.63	-0.33	inactive
ATP6V1D (ATPase H+ transporting V1 subunit D)	no change	no change	-0.7	-0.21	inactive
SAFB2 (scaffold attachment factor B2)	no change	no change	-0.58	0.93	inactive
ALDH16A1 (aldehyde dehydrogenase 16 family member A1)	no change	no change	0.9	-0.92	inactive
PLIN1 (perilipin 1)	no change	no change	0.65	-0.05	inactive
PADI3 (peptidyl arginine deiminase 3)	no change	no change	0.61	1.66	inactive
FYTTD1 (forty-two-three domain containing 1)	no change	no change	1.36	-0.17	inactive
UBOX5 (U-box domain containing 5)	no change	no change	-0.15	-0.46	inactive
SPATA6L (spermatogenesis associated 6 like)	no change	no change	0.06	0.02	inactive
TSHZ1 (teashirt zinc finger homeobox 1)	no change	no change	1.15	-0.24	inactive
EXOC6 (exocyst complex component 6)	no change	no change	0.54	-0.83	inactive
ERBB4 (erb-b2 receptor tyrosine kinase 4)	no change	no change	-1.36	3.1	inactive
BBS4 (Bardet-Biedl syndrome 4)	no change	no change	0.84	-0.06	inactive
OTUD4 (OTU deubiquitinase 4)	no change	no change	0.74	-0.26	inactive
FAM24A (family with sequence similarity 24 member A)	no change	no change	1.82	-0.22	inactive
ZNF273 (zinc finger protein 273)	no change	no change	0.58	-0.64	inactive
SCRN3 (secernin 3)	no change	no change	0.2	-1.17	inactive
VAPB (VAMP associated protein B and C)	no change	no change	-0.4	0.78	inactive
ATP6V0A4 (ATPase H+ transporting V0 subunit a4)	no change	no change	-0.3	-0.13	inactive
CYP3A43 (cytochrome P450 family 3 subfamily A member 43)	no change	no change	1.84	0.2	inactive
TWNK (twinkle mtDNA helicase)	no change	no change	0.72	-0.82	inactive
UBL3 (ubiquitin like 3)	no change	no change	0.36	-0.73	inactive
HSDL1 (hydroxysteroid dehydrogenase like 1)	no change	no change	1.04	0.76	inactive
ENKUR (enkurin, TRPC channel interacting protein)	no change	no change	0.29	-0.56	inactive
GLT8D2 (glycosyltransferase 8 domain containing 2)	no change	no change	-1.2	-0.14	inactive
SKA1 (spindle and kinetochore associated complex subunit 1)	no change	no change	-0.22	-0.02	inactive
ALKBH8 (alkB homolog 8, tRNA methyltransferase)	no change	no change	-0.44	-0.59	inactive
AREL1 (apoptosis resistant E3 ubiquitin protein ligase 1)	no change	no change	0.25	0.07	inactive
TM2D3 (TM2 domain containing 3)	no change	no change	0.71	0.32	inactive
SNX12 (sorting nexin 12)	no change	no change	-0.23	0.96	inactive
C1orf174 (chromosome 1 open reading frame 174)	no change	no change	-0.07	0.1	inactive
ZNF672 (zinc finger protein 672)	no change	no change	-1.2	2.04	inactive
CAT (catalase)	no change	no change	1.8	-0.08	inactive
UQCRFS1	no change	no change	0.4	-0.75	inactive
L3HYPDH (trans-L-3-hydroxyproline dehydratase)	no change	no change	0.61	-0.46	inactive
SOAT1 (sterol O-acyltransferase 1)	no change	no change	0.48	-0.78	inactive
LINC03042 (long independently transcribed non-coding RNA 3042)	no change	no change	1.01	-0.18	inactive
PKD2L2	no change	no change	-0.37	0.53	inactive
CACUL1 (CDK2 associated cullin domain 1)	no change	no change	-0.09	-0.3	inactive
MCM8	no change	no change	1.25	-0.6	inactive
TTLL1 (TTL family tubulin polyglutamylase complex subunit L1)	no change	no change	-0.84	-0.17	inactive

Laid out differently: 4 of the entries above.
| gene | viability hit class | caspase hit class | viability robust z-score | caspase robust z-score | Outcome |
| --- | --- | --- | --- | --- | --- |
| ABCG1 (ATP binding cassette subfamily G member 1) | no change | no change | 2.18 | 3.85 | inactive |
| ZNF648 (zinc finger protein 648) | no change | no change | -0.45 | 0.68 | inactive |
| TCHHL1 (trichohyalin like 1) | no change | no change | -0.15 | 1.27 | inactive |
| CDKN2A (cyclin dependent kinase inhibitor 2A) | no change | no change | -0.18 | -1.16 | inactive |
